Data reported in PMC3762332.
For at least one entry, the source does not settle the construct or the ends of the probe. For some assays here: Tags and fusion partners may be left off the protein sequences shown.

Protein sequences, listed by entry. Tags and fused reporters are not part of them. Lines headed by an entry give the natural chain unless they say otherwise; changes in a name come on top.
UniProt Q9BWM5: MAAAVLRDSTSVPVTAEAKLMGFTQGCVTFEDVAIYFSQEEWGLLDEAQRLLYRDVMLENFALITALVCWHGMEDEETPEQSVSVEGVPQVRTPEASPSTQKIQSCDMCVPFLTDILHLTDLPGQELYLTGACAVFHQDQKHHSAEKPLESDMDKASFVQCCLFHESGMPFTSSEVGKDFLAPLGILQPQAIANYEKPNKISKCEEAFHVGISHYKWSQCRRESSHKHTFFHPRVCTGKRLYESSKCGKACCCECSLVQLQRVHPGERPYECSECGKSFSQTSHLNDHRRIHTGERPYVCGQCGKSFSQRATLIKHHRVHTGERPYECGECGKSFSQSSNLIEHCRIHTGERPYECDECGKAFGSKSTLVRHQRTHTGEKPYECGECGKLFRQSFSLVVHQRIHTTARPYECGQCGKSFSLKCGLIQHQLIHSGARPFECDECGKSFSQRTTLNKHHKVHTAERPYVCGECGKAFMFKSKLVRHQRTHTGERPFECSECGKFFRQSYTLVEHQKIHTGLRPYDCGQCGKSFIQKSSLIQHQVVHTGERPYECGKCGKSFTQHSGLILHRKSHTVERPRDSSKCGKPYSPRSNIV
UniProt Q8NC26: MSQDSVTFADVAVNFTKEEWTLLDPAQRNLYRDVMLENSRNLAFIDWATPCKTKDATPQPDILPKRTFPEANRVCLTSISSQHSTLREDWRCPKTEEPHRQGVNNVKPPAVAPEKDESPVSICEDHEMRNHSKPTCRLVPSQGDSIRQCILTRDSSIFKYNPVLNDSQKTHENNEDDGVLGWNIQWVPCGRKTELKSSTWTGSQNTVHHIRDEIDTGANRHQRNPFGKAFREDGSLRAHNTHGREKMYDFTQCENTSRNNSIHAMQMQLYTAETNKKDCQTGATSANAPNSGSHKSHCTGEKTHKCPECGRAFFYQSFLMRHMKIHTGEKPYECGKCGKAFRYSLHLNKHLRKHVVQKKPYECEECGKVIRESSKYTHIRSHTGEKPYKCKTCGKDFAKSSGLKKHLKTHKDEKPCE
UniProt P43694: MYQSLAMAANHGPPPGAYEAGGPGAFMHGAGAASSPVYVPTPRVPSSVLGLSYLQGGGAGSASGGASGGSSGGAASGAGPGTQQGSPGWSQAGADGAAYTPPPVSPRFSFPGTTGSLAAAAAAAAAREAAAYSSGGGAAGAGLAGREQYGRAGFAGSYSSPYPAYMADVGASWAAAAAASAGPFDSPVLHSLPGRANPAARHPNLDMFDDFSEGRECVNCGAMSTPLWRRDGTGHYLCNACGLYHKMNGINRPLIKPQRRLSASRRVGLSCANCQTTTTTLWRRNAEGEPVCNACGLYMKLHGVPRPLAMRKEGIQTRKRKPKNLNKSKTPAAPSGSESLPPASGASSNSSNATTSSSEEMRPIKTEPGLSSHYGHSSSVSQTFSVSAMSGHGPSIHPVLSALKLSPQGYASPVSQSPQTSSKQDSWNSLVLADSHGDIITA
UniProt P20719: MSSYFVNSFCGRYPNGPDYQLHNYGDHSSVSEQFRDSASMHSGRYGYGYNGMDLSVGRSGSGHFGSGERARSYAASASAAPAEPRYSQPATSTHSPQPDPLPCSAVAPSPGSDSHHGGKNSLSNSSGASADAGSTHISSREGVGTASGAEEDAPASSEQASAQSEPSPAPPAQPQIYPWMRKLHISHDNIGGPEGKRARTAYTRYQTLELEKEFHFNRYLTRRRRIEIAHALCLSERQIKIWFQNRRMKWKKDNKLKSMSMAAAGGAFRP
UniProt O00716: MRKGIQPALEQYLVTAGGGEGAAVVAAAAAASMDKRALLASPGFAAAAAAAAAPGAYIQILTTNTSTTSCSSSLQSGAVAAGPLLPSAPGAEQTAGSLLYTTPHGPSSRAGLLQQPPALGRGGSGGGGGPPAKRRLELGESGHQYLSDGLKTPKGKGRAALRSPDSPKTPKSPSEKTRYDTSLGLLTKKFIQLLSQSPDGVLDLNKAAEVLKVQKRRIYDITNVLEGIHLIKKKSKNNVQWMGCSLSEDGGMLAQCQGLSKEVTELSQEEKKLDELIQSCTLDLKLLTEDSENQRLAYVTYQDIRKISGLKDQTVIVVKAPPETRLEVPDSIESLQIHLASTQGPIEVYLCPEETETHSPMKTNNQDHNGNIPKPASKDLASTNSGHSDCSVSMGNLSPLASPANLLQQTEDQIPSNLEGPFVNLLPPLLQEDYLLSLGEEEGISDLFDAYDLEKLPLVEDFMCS
UniProt P19793: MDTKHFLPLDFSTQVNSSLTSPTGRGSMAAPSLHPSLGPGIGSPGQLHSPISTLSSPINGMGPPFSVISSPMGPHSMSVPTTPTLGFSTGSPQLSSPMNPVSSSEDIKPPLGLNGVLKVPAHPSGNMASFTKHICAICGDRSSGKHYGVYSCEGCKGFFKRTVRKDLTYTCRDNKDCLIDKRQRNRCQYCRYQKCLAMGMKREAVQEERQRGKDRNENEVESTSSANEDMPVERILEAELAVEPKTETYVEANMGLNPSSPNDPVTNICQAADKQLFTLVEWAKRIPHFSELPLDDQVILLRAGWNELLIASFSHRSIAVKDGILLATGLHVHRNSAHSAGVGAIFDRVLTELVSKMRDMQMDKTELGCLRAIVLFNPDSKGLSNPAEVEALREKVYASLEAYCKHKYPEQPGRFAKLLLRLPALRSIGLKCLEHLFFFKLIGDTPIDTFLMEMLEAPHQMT
UniProt P37231: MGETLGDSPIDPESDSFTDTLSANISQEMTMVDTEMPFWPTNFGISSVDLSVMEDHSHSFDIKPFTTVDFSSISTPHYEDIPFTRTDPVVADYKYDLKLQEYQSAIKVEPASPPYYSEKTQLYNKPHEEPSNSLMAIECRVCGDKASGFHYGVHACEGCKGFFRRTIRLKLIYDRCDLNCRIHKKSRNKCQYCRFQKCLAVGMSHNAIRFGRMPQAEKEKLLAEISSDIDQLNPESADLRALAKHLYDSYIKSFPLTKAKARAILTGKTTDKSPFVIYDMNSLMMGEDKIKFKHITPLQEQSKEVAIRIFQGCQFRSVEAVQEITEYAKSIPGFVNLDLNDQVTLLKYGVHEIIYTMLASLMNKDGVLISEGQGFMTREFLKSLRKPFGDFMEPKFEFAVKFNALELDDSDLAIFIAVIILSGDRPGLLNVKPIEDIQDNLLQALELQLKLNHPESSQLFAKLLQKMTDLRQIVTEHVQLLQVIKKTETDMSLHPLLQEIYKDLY
UniProt Q8IW36: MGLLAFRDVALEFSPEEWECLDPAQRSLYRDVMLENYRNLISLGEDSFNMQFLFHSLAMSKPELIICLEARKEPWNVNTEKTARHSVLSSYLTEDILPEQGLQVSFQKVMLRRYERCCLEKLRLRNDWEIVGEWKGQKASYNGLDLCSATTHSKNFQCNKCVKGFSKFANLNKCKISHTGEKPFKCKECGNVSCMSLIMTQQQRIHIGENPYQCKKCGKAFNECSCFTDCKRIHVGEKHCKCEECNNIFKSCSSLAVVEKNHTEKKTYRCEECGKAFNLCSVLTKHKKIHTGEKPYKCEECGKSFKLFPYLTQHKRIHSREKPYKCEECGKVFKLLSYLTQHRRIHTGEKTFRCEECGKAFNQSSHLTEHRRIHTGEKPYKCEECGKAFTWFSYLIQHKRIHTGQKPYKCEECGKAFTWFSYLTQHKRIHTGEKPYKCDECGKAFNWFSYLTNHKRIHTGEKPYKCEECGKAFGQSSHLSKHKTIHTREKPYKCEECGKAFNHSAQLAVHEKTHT

Columns and labels:
Assay in all cases: protein microarray
Details in all cases: 10-fold cold unmethylated competitor; 5mC at CpG (SssI, both strands); recombinant protein; protein details: GST (N-terminal); label: Cy5
ZNF416 (Homo sapiens) = ZNF416 (Homo sapiens) (UniProt Q9BWM5)
ZNF114 (Homo sapiens) = ZNF114 (Homo sapiens) (UniProt Q8NC26)
GATA4 (Homo sapiens) = GATA4 (Homo sapiens) (UniProt P43694)
NRF1 (Homo sapiens) = biological target: T1, NRF1 (Homo sapiens) (UniProt Q16656)
T1 sequence (looked up, limits assumed): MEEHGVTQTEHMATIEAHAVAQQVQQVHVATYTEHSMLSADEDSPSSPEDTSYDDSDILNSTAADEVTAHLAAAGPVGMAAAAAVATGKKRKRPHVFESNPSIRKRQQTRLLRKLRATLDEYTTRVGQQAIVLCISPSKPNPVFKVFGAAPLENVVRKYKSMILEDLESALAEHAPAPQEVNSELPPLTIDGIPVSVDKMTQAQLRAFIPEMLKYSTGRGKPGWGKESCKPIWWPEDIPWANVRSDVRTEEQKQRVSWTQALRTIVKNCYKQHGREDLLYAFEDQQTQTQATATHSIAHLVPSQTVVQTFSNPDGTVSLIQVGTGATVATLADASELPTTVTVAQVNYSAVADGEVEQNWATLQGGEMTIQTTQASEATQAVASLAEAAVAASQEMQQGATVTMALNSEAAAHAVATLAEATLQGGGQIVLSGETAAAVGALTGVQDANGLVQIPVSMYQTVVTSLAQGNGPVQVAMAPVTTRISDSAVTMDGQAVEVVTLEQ

SCAPER (Homo sapiens) = biological target: T2, SCAPER (Homo sapiens) (UniProt Q9BY12)
T2 sequence (looked up, limits assumed): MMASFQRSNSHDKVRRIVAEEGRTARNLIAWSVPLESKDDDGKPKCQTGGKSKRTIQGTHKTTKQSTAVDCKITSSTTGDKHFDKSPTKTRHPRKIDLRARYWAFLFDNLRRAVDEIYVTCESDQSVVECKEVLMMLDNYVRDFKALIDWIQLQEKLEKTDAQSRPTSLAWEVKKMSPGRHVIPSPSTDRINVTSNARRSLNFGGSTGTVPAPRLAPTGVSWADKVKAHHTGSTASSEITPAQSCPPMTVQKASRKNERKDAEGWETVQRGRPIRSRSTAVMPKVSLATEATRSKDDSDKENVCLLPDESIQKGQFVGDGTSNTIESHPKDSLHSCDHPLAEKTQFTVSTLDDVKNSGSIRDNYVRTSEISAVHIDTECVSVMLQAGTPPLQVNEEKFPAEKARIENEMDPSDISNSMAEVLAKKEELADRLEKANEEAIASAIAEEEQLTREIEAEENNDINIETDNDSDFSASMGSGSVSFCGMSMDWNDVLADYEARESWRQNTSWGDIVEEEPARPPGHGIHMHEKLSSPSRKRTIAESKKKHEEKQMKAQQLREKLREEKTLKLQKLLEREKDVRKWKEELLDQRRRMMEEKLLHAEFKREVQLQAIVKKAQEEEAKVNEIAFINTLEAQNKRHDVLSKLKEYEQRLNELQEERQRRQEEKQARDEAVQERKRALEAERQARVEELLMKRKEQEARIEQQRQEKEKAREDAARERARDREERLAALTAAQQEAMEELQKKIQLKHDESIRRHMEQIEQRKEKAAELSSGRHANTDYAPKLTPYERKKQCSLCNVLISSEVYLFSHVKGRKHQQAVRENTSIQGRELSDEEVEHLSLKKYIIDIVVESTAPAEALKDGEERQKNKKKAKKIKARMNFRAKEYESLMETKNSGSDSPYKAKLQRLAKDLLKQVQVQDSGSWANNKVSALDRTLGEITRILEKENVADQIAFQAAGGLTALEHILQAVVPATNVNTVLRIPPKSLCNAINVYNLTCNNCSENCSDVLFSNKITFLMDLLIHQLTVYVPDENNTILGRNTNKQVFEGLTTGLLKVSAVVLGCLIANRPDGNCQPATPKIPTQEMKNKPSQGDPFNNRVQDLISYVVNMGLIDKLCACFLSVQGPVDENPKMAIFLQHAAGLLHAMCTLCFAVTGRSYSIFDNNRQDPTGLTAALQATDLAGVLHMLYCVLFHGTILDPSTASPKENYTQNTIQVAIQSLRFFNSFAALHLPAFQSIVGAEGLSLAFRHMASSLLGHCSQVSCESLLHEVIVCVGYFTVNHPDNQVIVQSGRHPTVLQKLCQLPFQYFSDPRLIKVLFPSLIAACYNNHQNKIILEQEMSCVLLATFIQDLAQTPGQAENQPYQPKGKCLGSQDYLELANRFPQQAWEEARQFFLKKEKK

HOXA5 (Homo sapiens) = HOXA5 (Homo sapiens) (UniProt P20719)
E2F3 (Homo sapiens) = E2F3 (Homo sapiens) (UniProt O00716)
RXRA (Homo sapiens) = RXRA (Homo sapiens) (UniProt P19793)
PPARG (Homo sapiens) = PPARG (Homo sapiens) (UniProt P37231)
ZCCHC7 (Homo sapiens) = biological target: T3, ZCCHC7 (Homo sapiens) (UniProt Q8N3Z6)
T3 sequence (looked up, limits assumed): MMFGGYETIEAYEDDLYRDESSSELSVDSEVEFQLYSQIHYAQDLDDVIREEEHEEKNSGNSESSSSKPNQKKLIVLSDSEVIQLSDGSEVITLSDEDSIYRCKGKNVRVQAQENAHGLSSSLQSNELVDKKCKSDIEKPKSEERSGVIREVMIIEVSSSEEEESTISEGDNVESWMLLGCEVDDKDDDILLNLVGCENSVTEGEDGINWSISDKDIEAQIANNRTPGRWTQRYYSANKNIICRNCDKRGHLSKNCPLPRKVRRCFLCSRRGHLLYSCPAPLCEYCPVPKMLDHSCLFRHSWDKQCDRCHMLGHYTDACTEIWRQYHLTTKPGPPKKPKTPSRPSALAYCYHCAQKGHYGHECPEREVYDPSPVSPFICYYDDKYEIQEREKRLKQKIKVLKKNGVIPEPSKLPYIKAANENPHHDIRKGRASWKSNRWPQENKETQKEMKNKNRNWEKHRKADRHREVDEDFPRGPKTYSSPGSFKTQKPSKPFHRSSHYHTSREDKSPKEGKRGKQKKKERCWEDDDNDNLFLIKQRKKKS

ZNF695 (Homo sapiens) = ZNF695 (Homo sapiens) (UniProt Q8IW36)
RNF138 (Homo sapiens) = biological target: T4, RNF138 (Homo sapiens) (UniProt Q8WVD3)
T4 sequence (looked up, limits assumed): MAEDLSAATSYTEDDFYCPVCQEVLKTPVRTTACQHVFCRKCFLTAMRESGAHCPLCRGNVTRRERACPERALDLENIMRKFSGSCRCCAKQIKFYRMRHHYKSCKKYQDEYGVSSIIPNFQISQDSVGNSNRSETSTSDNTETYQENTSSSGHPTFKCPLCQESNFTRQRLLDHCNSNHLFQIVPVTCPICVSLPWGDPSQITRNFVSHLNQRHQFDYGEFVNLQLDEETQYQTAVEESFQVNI

Measured: binding result

CGTCACTTCAAACGTCACTTCCCCTATAGTGAGTGCTATTA (double strand) [M69]
binds: ZNF416 (Homo sapiens) | ZNF114 (Homo sapiens) | GATA4 (Homo sapiens) | NRF1 (Homo sapiens) | SCAPER (Homo sapiens) | HOXA5 (Homo sapiens) | E2F3 (Homo sapiens)

CGGGCAAAGGCCAAAACGGGCAAAGGCCACCCTATAGTGAGTGCTATTA (double strand) [M26]
binds: ZNF416 (Homo sapiens) | ZNF114 (Homo sapiens) | RXRA (Homo sapiens) | PPARG (Homo sapiens) | GATA4 (Homo sapiens) | ZCCHC7 (Homo sapiens) | SCAPER (Homo sapiens) | ZNF695 (Homo sapiens) | HOXA5 (Homo sapiens) | RNF138 (Homo sapiens)

CGCCTGCGCAAACGCCTGCGCCCCTATAGTGAGTGCTATTA (double strand) [M61]
binds: HOXA5 (Homo sapiens) | RNF138 (Homo sapiens)

GGGTACGGAAAGGGTACGGCCCTATAGTGAGTGCTATTA (double strand) [M451]
binds: ZNF416 (Homo sapiens) | ZNF114 (Homo sapiens) | RXRA (Homo sapiens) | GATA4 (Homo sapiens) | SCAPER (Homo sapiens) | HOXA5 (Homo sapiens) | RNF138 (Homo sapiens)

CGGCAGCTTTCGGCAGCCCCTATAGTGAGTGCTATTA (double strand) [M308]
binds: ZNF416 (Homo sapiens) | ZNF114 (Homo sapiens) | RXRA (Homo sapiens) | PPARG (Homo sapiens) | GATA4 (Homo sapiens) | SCAPER (Homo sapiens) | ZNF695 (Homo sapiens) | HOXA5 (Homo sapiens) | E2F3 (Homo sapiens)

GCGCGCGCGAAAGCGCGCGCGCCCTATAGTGAGTGCTATTA (double strand) [M212]
binds: ZNF416 (Homo sapiens) | ZNF114 (Homo sapiens) | PPARG (Homo sapiens) | GATA4 (Homo sapiens) | SCAPER (Homo sapiens) | ZNF695 (Homo sapiens) | E2F3 (Homo sapiens)

AGGTCGTGCAAAAGGTCGTGCCCCTATAGTGAGTGCTATTA (double strand) [M399]
binds: ZNF416 (Homo sapiens) | ZNF114 (Homo sapiens) | PPARG (Homo sapiens) | GATA4 (Homo sapiens) | ZCCHC7 (Homo sapiens) | SCAPER (Homo sapiens) | ZNF695 (Homo sapiens) | HOXA5 (Homo sapiens) | RNF138 (Homo sapiens) | E2F3 (Homo sapiens)

AGAGTCCGTTTAGAGTCCGCCCTATAGTGAGTGCTATTA (double strand) [M432]
binds: ZNF416 (Homo sapiens) | ZNF114 (Homo sapiens) | PPARG (Homo sapiens) | SCAPER (Homo sapiens) | HOXA5 (Homo sapiens) | RNF138 (Homo sapiens) | E2F3 (Homo sapiens)

GAAAGGCGAAAAGAAAGGCGACCCTATAGTGAGTGCTATTA (double strand) [M391]
binds: ZNF416 (Homo sapiens) | ZNF114 (Homo sapiens) | PPARG (Homo sapiens) | GATA4 (Homo sapiens) | ZNF695 (Homo sapiens) | E2F3 (Homo sapiens)

CGTTGATCTTTCGTTGATCCCCTATAGTGAGTGCTATTA (double strand) [M415]
binds: ZNF416 (Homo sapiens) | ZNF114 (Homo sapiens) | RXRA (Homo sapiens) | PPARG (Homo sapiens) | GATA4 (Homo sapiens) | ZCCHC7 (Homo sapiens) | SCAPER (Homo sapiens) | HOXA5 (Homo sapiens)

GGCGCTCGCTGGTGACGAAAGGCGCTCGCTGGTGACGCCCTATAGTGAGTGCTATTA (double strand) [M205]
binds: ZNF416 (Homo sapiens) | ZNF114 (Homo sapiens) | NRF1 (Homo sapiens) | ZNF695 (Homo sapiens) | E2F3 (Homo sapiens)

TTCCGCCAAATTCCGCCCCCTATAGTGAGTGCTATTA (double strand) [M82]
binds: ZNF416 (Homo sapiens) | ZNF114 (Homo sapiens) | GATA4 (Homo sapiens) | SCAPER (Homo sapiens) | HOXA5 (Homo sapiens) | RNF138 (Homo sapiens) | E2F3 (Homo sapiens)

CGCACGCGCAAACGCACGCGCCCCTATAGTGAGTGCTATTA (double strand) [M63]
binds: ZNF416 (Homo sapiens) | ZNF114 (Homo sapiens) | RXRA (Homo sapiens) | E2F3 (Homo sapiens)
